Results are given in words; binding and its absence hold for the method and conditions named. Binding seen in cells or lysates may run through a third protein. Some binding calls cover weakened binding; strength is not graded here.
Target: T1, Checkpoint kinase 1 (CHK1) (human (endogenous in Huh-7)) (UniProt O14757)
T1 sequence: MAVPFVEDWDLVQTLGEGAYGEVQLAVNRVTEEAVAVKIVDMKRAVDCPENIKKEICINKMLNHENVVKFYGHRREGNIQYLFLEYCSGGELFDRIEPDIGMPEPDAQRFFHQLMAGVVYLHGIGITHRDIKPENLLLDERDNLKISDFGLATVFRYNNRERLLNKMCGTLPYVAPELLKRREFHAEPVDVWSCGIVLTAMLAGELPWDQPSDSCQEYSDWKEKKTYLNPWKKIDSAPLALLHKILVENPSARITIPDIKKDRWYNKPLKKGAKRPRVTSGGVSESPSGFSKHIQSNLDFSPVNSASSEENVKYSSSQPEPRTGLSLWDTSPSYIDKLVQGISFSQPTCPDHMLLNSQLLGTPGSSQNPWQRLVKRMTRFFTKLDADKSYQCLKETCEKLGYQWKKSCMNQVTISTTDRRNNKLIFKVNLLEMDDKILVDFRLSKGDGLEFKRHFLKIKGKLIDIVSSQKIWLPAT
Assay: co-IP; Lysate of Huh-7 cells treated with cisplatin 10 µM for 24 h; anti-CHK1 or anti-IRF1 antibody on Protein A+G magnetic beads, overnight at 4 °C; western blot for the other protein; control IgG

binding: binds
B1: Interferon regulatory factor 1 (IRF1) (protein, UniProt P10914 1-325)
chain: MPITRMRMRPWLEMQINSNQIPGLIWINKEEMIFQIPWKHAAKHGWDINKDACLFRSWAIHTGRYKAGEKEPDPKTWKANFRCAMNSLPDIEEVKDQSRNKGSSAVRVYRMLPPLTKNQRKERKSKSSRDAKSKAKRKSCGDSSPDTFSDGLSSSTLPDDHSSYTVPGYMQDLEVEQALTPALSPCAVSSTLPDWHIPVEVVPDSTSDLYNFQVSPMPSTSEATTDEDEEGKLPEDIMKLLEQSEWQPTNVDGKGYLLNEPGVQPTSVYGDFSCKEEPEIDSPGGDIGLSLQRVFTDLKNMDATWLDSLLTPVRLPSIQAIPCAP

— article PMC9913340
